Test results from patent US20090215882A1, “LYOPHILIZED SOLID TAXANE COMPOSITION, A PROCESS FOR PREPARING SAID SOLID COMPOSITION, A PHARMACEUTICAL FORMULATION AND A KIT FOR SAID FORMULATION” (ERIOCHEM, S.A., priority 2006, published 2009).

Assay: Solubility / dissolution in aqueous solutions without organic solvent
Assay type: physicochemical
Settings: commercially available API, absence of added organic solvents
Description: The intermediate lyophilized taxane is dissolved in aqueous solutions of polymers or a mixture of said polymers, namely Lutrol™ F68, Solutol™ HS15, povidone K12 PF or K17 PF.

- solubility in aqueous solutions: not soluble
Structure (SMILES): CC(=O)O[C@H]1C(=O)[C@@]2(C)[C@H]([C@H](OC(=O)c3ccccc3)[C@]3(O)C[C@H](OC(=O)[C@H](O)[C@@H](NC(=O)c4ccccc4)c4ccccc4)C(C)=C1C3(C)C)[C@]1(OC(C)=O)CO[C@@H]1C[C@@H]2O [paclitaxel]
